For 3 compounds, IC50 results are on record in patent US20050256159A1.

Protein sequences, listed by entry. Tags and fused reporters are not part of them.
UniProt P28845, whole entry: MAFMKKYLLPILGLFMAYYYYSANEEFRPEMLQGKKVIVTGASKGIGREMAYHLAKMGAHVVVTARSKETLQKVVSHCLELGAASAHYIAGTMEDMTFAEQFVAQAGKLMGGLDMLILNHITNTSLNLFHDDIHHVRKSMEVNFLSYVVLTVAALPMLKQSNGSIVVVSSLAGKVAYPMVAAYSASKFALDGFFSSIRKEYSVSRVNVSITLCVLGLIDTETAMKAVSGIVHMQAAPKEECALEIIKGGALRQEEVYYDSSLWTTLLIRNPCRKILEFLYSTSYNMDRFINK

Structures were worked out from names or drawings and are uncertain.

This assay addresses human 11βHSD1 (Homo sapiens, UniProt P28845). Briefly: HeLa GRE4-βGal/11βHSD1 cell reporter assay (β-galactosidase production). Particulars: HeLa GRE4-βGal/11βHSD1 cells, cortisone 1 μM, overnight incubation, β-galactosidase readout. An excerpt:
HeLa cells (human cervical carcinoma derived cells) were stably transfected with a construct containing four copies of the glucocorticoid response element (GRE) linked to a beta-galactosidase reporter gene (3 kb lac Z gene derived from pSV-B-galactosidase). These cells were then further stably transfected with a construct containing full-length human 11βHSD1 enzyme (in pCMVHyg) to create GRE4-βGal/11βHSD1 cells. The principal of the assay is as follows. Cortisone is freely taken up by the cells and is converted to cortisol by 11βHSD1 oxo-reductase activity and cortisol (but not cortisone) binds to and activates the glucocorticoid receptor. Activated glucocorticoid receptor then binds to the GRE and initiates transcription and translation of β-galactosidase. Enzyme activity can then be assayed with high sensitivity by colourimetric assay.
Cells were routinely cultured in DMEM (Invitrogen, Paisley, Renfrewshire, UK) containing 10% foetal calf serum (LabTech), 1% glutamine (Invitrogen), 1% penicillin & streptomycin (Invitrogen), 0.5 mg/ml G418 (Invitrogen) & 0.5mg/ml hygromycin (Boehringer). Assay media was phenol red free-DMEM containing 1% glutarine, 1% penicillin & streptomycin.
Compounds (1 mM) to be tested were dissolved in dimethyl sulphoxide (DMSO) and serially diluted into assay media containing 10% DMSO. […]
A cocktail (25 μl) consisting of 10× Z-buffer (600 mM Na2HPO4, 400 mM NaH2PO4.2H2O, 100 mM KCl, 10 mM MgSO4.7H2O, 500 mM β-mercaptoethanol, pH 7.0) SDS (0.2%), chlorophenol red-β-D-galactopyranoside (5 mM, Roche Diagnostics) was added per well and plates incubated at 37° C. for 3-4 hours. β-Galactosidase activity was indicated by a yellow to red colour change (absorbance at 570 nm) measured using a Tecan Spectrafluor Ultra.
The calculation of median inhibitory concentration (IC50) values for the inhibitors was performed using Origin 6.0 (Microcal Software, Northampton Mass. USA). Dose response curves for each inhibitor were plotted as OD units at each inhibitor concentration with relation to a maximum signal (cortisone, no compound) and IC50 values calculated. […]
On the technique in general: Reporter assays use an easily measured gene product as a stand-in for the process of interest.

As a reminder, the IC50 is the concentration at which inhibition is half-maximal. High values mean weaker potency in that assay, low ones greater potency in that assay. Turning to `O=C(c1ccc(OC(F)(F)F)cc1)C1CCN(C(=O)c2ccc(F)cc2)CC1`, the IC50 worked out at 0.05 µM.
With `COc1ccc(C(=O)C2CCN(C(=O)c3ccccc3OC(F)(F)F)CC2)cc1`, the IC50 came out at 0.097 µM.
To `COc1ccc(C(=O)C2CCN(C(=O)c3ccc(F)cc3)CC2)cc1` belongs 0.254 µM.
